Data from patent publication US10034476B2, “Insecticidal phenyl-or pyridyl-piperdine compounds” (Syngenta Participations AG, priority 2008, dated 2018).
Some entries share one result that the patent states for a list of compounds.

Columns and labels:
Format in all cases: in vivo
Spodoptera littoralis = Spodoptera littoralis (Egyptian cotton leafworm) cotton leaf disc spray test; conditions: 200 ppm spray on cotton leaf discs, L1 larvae, 3 DAT; mortality, feeding behavior, growth regulation
Text: Spodoptera littoralis (Egyptian Cotton Leafworm) Cotton leaf discs were placed on agar in a 24-well microtiter plate and sprayed with test solutions at an application rate of 200 ppm. After drying, the leaf discs were infested with 5 L1 larvae. The samples were checked for mortality, feeding behavior, and growth regulation 3 days after treatment (DAT).

Plutella xylostella = Plutella xylostella (diamond back moth) artificial diet test; conditions: 200 ppm (concentration in well 18 ppm), L2 larvae, 6 days, larval mortality, growth regulation
Procedure: (§1) Plutella xylostella (Diamond Back Moth): 24-well microtiter plate (MTP) with artificial diet was treated with test solutions at an application rate of 200 ppm (concentration in well 18 ppm) by pipetting. After drying, the MTP's were infested with L2 larvae (7-12 per well). After an incubation period of 6 days, samples were checked for larval mortality and growth regulation.

Diabrotica balteata = Diabrotica balteata (corn root worm) artificial diet test; conditions: 200 ppm (concentration in well 18 ppm), L2 larvae, 5 days, larval mortality, growth regulation
Procedure: as §1, with “Diabrotica Balteata (Corn Root Worm): A” for “Plutella xylostella (Diamond Back Moth):”, “with” for “with L2”, “(L2) (6-10” for “(7-12”, “5” for “6”, “mortality,” for “mortality”

Heliothis virescens = Heliothis virescens (tobacco budworm) egg/artificial diet test; conditions: 200 ppm (concentration in well 18 ppm), eggs 0-24 h old on artificial diet, 4 days; egg mortality, larval mortality, growth regulation
Procedure: Heliothis virescens (Tobacco Budworm): Eggs (0-24 h old) were placed in 24-well microtiter plate on artificial diet and treated with test solutions at an application rate of 200 ppm (concentration in well 18 ppm) by pipetting. After an incubation period of 4 days, samples were checked for egg mortality, larval mortality, and growth regulation.

O=C(Nc1ccc(F)cc1C1CCN(Cc2ccc(-c3ccccc3)cc2)CC1)c1ccnc(Cl)c1 [Compound A26]
at least 80%: control of Spodoptera littoralis (Spodoptera littoralis) | control of Plutella xylostella (Plutella xylostella) | control of Diabrotica balteata (Diabrotica balteata) | control of Heliothis virescens (Heliothis virescens)

O=C(Nc1ccc(C2CC2)nc1C1CCN(Cc2ccc(-c3ccc(F)cc3)cc2)CC1)c1ccnc(Cl)c1 [Compound C14]
at least 80%: control of Spodoptera littoralis (Spodoptera littoralis) | control of Plutella xylostella (Plutella xylostella) | control of Diabrotica balteata (Diabrotica balteata) | control of Heliothis virescens (Heliothis virescens)

O=C(Nc1cc(F)c(Cl)cc1C1CC[N+]([O-])(Cc2ccc(-c3ccc(F)cc3)cc2)CC1)c1ccnc(Cl)c1 (stereo not shown) [Compound B12]
at least 80%: control of Spodoptera littoralis (Spodoptera littoralis) | control of Plutella xylostella (Plutella xylostella) | control of Diabrotica balteata (Diabrotica balteata) | control of Heliothis virescens (Heliothis virescens)

O=C(Nc1ccc(C(F)(F)F)nc1C1CC[N+]([O-])(Cc2ccc(-c3ccc(F)cc3)cc2)CC1)c1cc(Cl)ncc1Cl (stereo not shown) [Compound D9]
at least 80%: control of Spodoptera littoralis (Spodoptera littoralis) | control of Plutella xylostella (Plutella xylostella) | control of Diabrotica balteata (Diabrotica balteata) | control of Heliothis virescens (Heliothis virescens)

O=C(Nc1ccc(Cl)cc1C1CC[N+]([O-])(Cc2ccc(-c3ccc(F)cc3)cc2)CC1)c1ccnc(Cl)c1 (stereo not shown) [Compound B13]
at least 80%: control of Spodoptera littoralis (Spodoptera littoralis) | control of Plutella xylostella (Plutella xylostella) | control of Diabrotica balteata (Diabrotica balteata) | control of Heliothis virescens (Heliothis virescens)

O=C(Nc1ccc(C(F)(C(F)(F)F)C(F)(F)F)cc1C1CCN(Cc2ccc(-c3ccc(F)cc3)cc2)CC1)c1ccnc(Cl)c1 [Compound A11]
at least 80%: control of Spodoptera littoralis (Spodoptera littoralis) | control of Plutella xylostella (Plutella xylostella) | control of Diabrotica balteata (Diabrotica balteata) | control of Heliothis virescens (Heliothis virescens)

C=Cc1nc(C2CCN(Cc3ccc(-c4ccc(F)cc4)cc3)CC2)c(NC(=O)c2ccnc(Cl)c2)cc1Cl [Compound C12]
at least 80%: control of Spodoptera littoralis (Spodoptera littoralis) | control of Plutella xylostella (Plutella xylostella) | control of Diabrotica balteata (Diabrotica balteata) | control of Heliothis virescens (Heliothis virescens)

O=C(Nc1ccc(F)c(F)c1C1CCN(Cc2ccc(-c3ccc(F)cc3)cc2)CC1)c1ccnc(Cl)c1 [Compound E7]
at least 80%: control of Spodoptera littoralis (Spodoptera littoralis) | control of Plutella xylostella (Plutella xylostella) | control of Diabrotica balteata (Diabrotica balteata) | control of Heliothis virescens (Heliothis virescens)

Cc1cc(NC(=O)c2ccnc(Cl)c2)c(C2CC[N+]([O-])(Cc3ccc(-c4ccc(F)cc4)cc3)CC2)nc1Cl (stereo not shown) [Compound D17]
at least 80%: control of Spodoptera littoralis (Spodoptera littoralis) | control of Plutella xylostella (Plutella xylostella) | control of Diabrotica balteata (Diabrotica balteata) | control of Heliothis virescens (Heliothis virescens)

O=C(Nc1ccc(C(F)(F)F)cc1C1CCN(Cc2ccc(-c3ccc(Cl)cc3)cc2)CC1)c1ccnc(Cl)c1 [Compound A31]
at least 80%: control of Spodoptera littoralis (Spodoptera littoralis) | control of Plutella xylostella (Plutella xylostella) | control of Diabrotica balteata (Diabrotica balteata) | control of Heliothis virescens (Heliothis virescens)

O=C(Nc1ccc(Br)c(F)c1C1CC[N+]([O-])(Cc2ccc(-c3ccc(F)cc3)cc2)CC1)c1ccnc(Cl)c1 (stereo not shown) [Compound G5]
at least 80%: control of Spodoptera littoralis (Spodoptera littoralis) | control of Plutella xylostella (Plutella xylostella) | control of Diabrotica balteata (Diabrotica balteata) | control of Heliothis virescens (Heliothis virescens)

O=C(Nc1cc(C2CC2)cnc1C1CCN(Cc2ccc(-c3ccc(F)cc3)cc2)CC1)c1ccnc(Cl)c1 [Compound C22]
at least 80%: control of Spodoptera littoralis (Spodoptera littoralis) | control of Plutella xylostella (Plutella xylostella) | control of Diabrotica balteata (Diabrotica balteata) | control of Heliothis virescens (Heliothis virescens)

O=C(Nc1ccc(C(F)(F)F)cc1C1CCN(Cc2ccc(-c3ccc(F)cc3)cc2)CC1)c1cc(F)ncc1Cl [Compound A41]
at least 80%: control of Spodoptera littoralis (Spodoptera littoralis) | control of Plutella xylostella (Plutella xylostella) | control of Diabrotica balteata (Diabrotica balteata) | control of Heliothis virescens (Heliothis virescens)

O=C(Nc1cc(Cl)c(Cl)nc1C1CC[N+]([O-])(Cc2ccc(-c3ccc(F)cc3)cc2)CC1)c1ccnc(F)c1 (stereo not shown) [Compound D10]
at least 80%: control of Spodoptera littoralis (Spodoptera littoralis) | control of Plutella xylostella (Plutella xylostella) | control of Diabrotica balteata (Diabrotica balteata) | control of Heliothis virescens (Heliothis virescens)

O=C(Nc1cccc(F)c1C1CC[N+]([O-])(Cc2ccc(-c3ccc(F)cc3)cc2)CC1)c1ccnc(Cl)c1 (stereo not shown) [Compound G3]
at least 80%: control of Spodoptera littoralis (Spodoptera littoralis) | control of Plutella xylostella (Plutella xylostella) | control of Diabrotica balteata (Diabrotica balteata) | control of Heliothis virescens (Heliothis virescens)

O=C(Nc1cc(F)c(C(F)(F)F)c(F)c1C1CC[N+]([O-])(Cc2ccc(-c3ccc(F)cc3)cc2)CC1)c1ccnc(Cl)c1 (stereo not shown) [Compound G2]
at least 80%: control of Spodoptera littoralis (Spodoptera littoralis) | control of Plutella xylostella (Plutella xylostella) | control of Diabrotica balteata (Diabrotica balteata) | control of Heliothis virescens (Heliothis virescens)

O=C(Nc1ccc(C(F)(F)F)cc1C1CCN(Cc2ccc(-c3ccc(F)cc3)cc2)CC1)c1ccnc(Cl)c1 [Compound A7]
at least 80%: control of Spodoptera littoralis (Spodoptera littoralis) | control of Plutella xylostella (Plutella xylostella) | control of Diabrotica balteata (Diabrotica balteata) | control of Heliothis virescens (Heliothis virescens)

O=C(Nc1ccc(C(F)(F)F)cc1C1CC[N+]([O-])(Cc2ccc(-c3ccc(F)cc3)cc2)CC1)c1cc(Cl)ncc1F (stereo not shown) [Compound B29]
at least 80%: control of Spodoptera littoralis (Spodoptera littoralis) | control of Plutella xylostella (Plutella xylostella) | control of Diabrotica balteata (Diabrotica balteata) | control of Heliothis virescens (Heliothis virescens)

O=C(Nc1cc(Br)c(Cl)nc1C1CC[N+]([O-])(Cc2ccc(-c3ccc(F)cc3)cc2)CC1)c1ccnc(Cl)c1 (stereo not shown) [Compound D16]
at least 80%: control of Spodoptera littoralis (Spodoptera littoralis) | control of Plutella xylostella (Plutella xylostella) | control of Diabrotica balteata (Diabrotica balteata) | control of Heliothis virescens (Heliothis virescens)

N#Cc1ccc(NC(=O)c2ccnc(Cl)c2)c(C2CC[N+]([O-])(Cc3ccc(-c4ccc(F)cc4)cc3)CC2)c1F (stereo not shown) [Compound G8]
at least 80%: control of Spodoptera littoralis (Spodoptera littoralis) | control of Plutella xylostella (Plutella xylostella) | control of Diabrotica balteata (Diabrotica balteata) | control of Heliothis virescens (Heliothis virescens)

O=C(Nc1ccc(C(F)(F)F)nc1C1CCN(Cc2ccc(-c3ccc(F)cc3)cc2)CC1)c1cc(Cl)nc(Cl)c1 [Compound C4]
at least 80%: control of Spodoptera littoralis (Spodoptera littoralis) | control of Plutella xylostella (Plutella xylostella) | control of Diabrotica balteata (Diabrotica balteata) | control of Heliothis virescens (Heliothis virescens)

O=C(Nc1cc(Cl)c(Cl)nc1C1CCN(Cc2ccc(-c3ccc(C(F)(F)F)cc3)cc2)CC1)c1ccnc(Cl)c1 [Compound C34]
at least 80%: control of Spodoptera littoralis (Spodoptera littoralis) | control of Plutella xylostella (Plutella xylostella) | control of Diabrotica balteata (Diabrotica balteata) | control of Heliothis virescens (Heliothis virescens)

O=C(Nc1ccc(C(F)(F)F)nc1C1CC[N+]([O-])(Cc2ccc(-c3ccc(F)cc3)cc2)CC1)c1ccnc(C(F)(F)F)c1 (stereo not shown) [Compound D22]
at least 80%: control of Spodoptera littoralis (Spodoptera littoralis) | control of Plutella xylostella (Plutella xylostella) | control of Diabrotica balteata (Diabrotica balteata) | control of Heliothis virescens (Heliothis virescens)

O=C(Nc1cc(C(F)(F)F)c(Cl)cc1C1CC[N+]([O-])(Cc2ccc(-c3ccc(F)cc3)cc2)CC1)c1ccnc(Cl)c1 (stereo not shown) [Compound B14]
at least 80%: control of Spodoptera littoralis (Spodoptera littoralis) | control of Plutella xylostella (Plutella xylostella) | control of Diabrotica balteata (Diabrotica balteata) | control of Heliothis virescens (Heliothis virescens)

O=C(Nc1ccc(F)cc1C1CCN(Cc2ccc(-c3ccc(Cl)cc3)cc2)CC1)c1ccnc(Cl)c1 [Compound A27]
at least 80%: control of Spodoptera littoralis (Spodoptera littoralis) | control of Plutella xylostella (Plutella xylostella) | control of Diabrotica balteata (Diabrotica balteata) | control of Heliothis virescens (Heliothis virescens)

O=C(Nc1ccc(OC(F)F)cc1C1CCN(Cc2ccc(-c3ccc(F)cc3)cc2)CC1)c1ccnc(Cl)c1 [Compound A8]
at least 80%: control of Spodoptera littoralis (Spodoptera littoralis) | control of Plutella xylostella (Plutella xylostella) | control of Diabrotica balteata (Diabrotica balteata) | control of Heliothis virescens (Heliothis virescens)

O=C(Nc1cc(Cl)c(C2CC2)nc1C1CC[N+]([O-])(Cc2ccc(-c3ccc(F)cc3)cc2)CC1)c1ccnc(Cl)c1 (stereo not shown) [Compound D14]
at least 80%: control of Spodoptera littoralis (Spodoptera littoralis) | control of Plutella xylostella (Plutella xylostella) | control of Diabrotica balteata (Diabrotica balteata) | control of Heliothis virescens (Heliothis virescens)

O=C(Nc1ccc(C(F)(F)F)nc1C1CC[N+]([O-])(Cc2ccc(-c3ccc(F)cc3)cc2)CC1)c1cc(F)ncc1Cl (stereo not shown) [Compound D24]
at least 80%: control of Spodoptera littoralis (Spodoptera littoralis) | control of Plutella xylostella (Plutella xylostella) | control of Diabrotica balteata (Diabrotica balteata) | control of Heliothis virescens (Heliothis virescens)
